US20040126819A1
These are yes or no findings as the source states them, for the method shown. Some entries that bind do so weakly or less than the wild type.

Amino acid sequences for entries named in this document (tags omitted). Residues count along the entry.
UniProt P35546, residues 29-1115: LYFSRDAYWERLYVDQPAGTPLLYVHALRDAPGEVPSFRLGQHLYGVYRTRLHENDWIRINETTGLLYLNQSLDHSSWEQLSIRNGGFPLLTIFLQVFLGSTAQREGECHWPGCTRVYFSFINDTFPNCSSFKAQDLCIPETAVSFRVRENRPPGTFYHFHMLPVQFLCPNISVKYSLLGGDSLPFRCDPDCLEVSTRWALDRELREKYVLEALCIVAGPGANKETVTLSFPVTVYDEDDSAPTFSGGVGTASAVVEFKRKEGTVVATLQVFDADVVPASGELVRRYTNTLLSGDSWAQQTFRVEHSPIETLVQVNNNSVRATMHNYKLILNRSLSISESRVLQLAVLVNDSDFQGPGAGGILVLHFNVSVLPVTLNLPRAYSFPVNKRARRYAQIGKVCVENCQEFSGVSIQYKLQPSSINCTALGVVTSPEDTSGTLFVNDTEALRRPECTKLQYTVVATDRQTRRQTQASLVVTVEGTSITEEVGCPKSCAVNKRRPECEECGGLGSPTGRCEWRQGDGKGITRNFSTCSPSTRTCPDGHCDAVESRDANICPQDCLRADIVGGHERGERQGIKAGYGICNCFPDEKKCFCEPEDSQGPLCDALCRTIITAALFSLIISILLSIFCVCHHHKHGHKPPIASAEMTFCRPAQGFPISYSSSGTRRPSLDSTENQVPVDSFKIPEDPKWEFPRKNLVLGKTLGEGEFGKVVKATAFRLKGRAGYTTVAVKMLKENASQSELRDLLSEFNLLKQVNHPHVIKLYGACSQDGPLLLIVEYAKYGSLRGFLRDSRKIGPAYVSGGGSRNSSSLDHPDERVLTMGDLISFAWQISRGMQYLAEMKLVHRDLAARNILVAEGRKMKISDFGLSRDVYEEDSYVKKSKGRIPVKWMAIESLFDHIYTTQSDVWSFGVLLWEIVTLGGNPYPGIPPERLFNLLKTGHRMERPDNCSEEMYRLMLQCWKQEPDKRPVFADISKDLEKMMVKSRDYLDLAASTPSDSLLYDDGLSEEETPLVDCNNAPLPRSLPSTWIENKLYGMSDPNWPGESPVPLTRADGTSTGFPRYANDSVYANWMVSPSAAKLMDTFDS

How the values were obtained:
[1] = target: mouse c-RET (product of the c-ret proto-oncogene) (mouse) (UniProt P35546); assay: EDAC cross-linking of 125I-GDNF to MN-1 cells, anti-c-RET immunoprecipitation
[2] = target: T1, 70 kD GDNF receptor subunit of rat cell lines (designated GDNFR-β) (rat) (UniProt O35977); assay: affinity labeling: 125I-GDNF cross-linked to C6 cells, SDS/PAGE, autoradiography
T1 sequence: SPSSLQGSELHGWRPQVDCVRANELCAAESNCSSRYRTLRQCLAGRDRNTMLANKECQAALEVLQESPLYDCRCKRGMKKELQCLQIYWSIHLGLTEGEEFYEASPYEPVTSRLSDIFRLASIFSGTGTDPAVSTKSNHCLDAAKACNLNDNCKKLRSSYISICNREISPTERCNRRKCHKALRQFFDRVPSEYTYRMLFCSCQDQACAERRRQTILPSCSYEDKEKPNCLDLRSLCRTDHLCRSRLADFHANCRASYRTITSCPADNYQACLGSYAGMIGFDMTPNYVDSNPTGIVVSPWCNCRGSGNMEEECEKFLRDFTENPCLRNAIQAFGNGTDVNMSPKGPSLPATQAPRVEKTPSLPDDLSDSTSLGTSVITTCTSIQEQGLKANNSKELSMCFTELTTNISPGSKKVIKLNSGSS

[3] = target: T2, 55 kD GDNF receptor subunit of rat cell lines (confirmed to be GDNFR-α) (rat) (UniProt Q62997); assay: as above
T2 sequence (looked up): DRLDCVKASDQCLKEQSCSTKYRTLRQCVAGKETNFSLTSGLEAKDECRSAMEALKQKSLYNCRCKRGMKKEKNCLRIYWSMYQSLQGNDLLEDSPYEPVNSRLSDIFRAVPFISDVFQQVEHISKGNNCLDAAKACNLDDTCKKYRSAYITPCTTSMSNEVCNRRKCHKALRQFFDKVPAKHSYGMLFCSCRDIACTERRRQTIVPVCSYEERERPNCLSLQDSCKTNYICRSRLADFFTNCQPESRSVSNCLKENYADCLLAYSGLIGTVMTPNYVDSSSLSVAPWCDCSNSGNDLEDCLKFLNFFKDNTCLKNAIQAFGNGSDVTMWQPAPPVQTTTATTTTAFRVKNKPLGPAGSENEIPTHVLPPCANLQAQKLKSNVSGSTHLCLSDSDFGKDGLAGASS

[4] = target: mouse c-RET (product of the c-ret proto-oncogene) (mouse) (UniProt P35546); assay: EDAC cross-linking of 125I-GDNF to MN-1 cells
[5] = target: T3, 70 kD GDNF receptor subunit of mouse cell lines (MN-1, TM4, SK-N-SH as printed) (mouse) (UniProt O08842); assay: cross-linking of 125I-GDNF to MN-1 cells
T3 sequence (looked up): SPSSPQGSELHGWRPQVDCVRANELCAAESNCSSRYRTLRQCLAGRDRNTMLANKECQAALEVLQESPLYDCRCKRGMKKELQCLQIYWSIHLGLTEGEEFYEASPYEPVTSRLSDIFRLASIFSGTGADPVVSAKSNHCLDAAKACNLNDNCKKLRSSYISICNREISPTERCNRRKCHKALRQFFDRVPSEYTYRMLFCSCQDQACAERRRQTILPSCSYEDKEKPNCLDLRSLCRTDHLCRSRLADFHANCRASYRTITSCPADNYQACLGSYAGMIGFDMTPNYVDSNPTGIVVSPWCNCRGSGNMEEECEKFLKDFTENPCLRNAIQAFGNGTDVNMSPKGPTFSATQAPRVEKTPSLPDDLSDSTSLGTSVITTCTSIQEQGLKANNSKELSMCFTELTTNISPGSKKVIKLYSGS

[6] = target: T1, 70 kD GDNF receptor subunit of rat cell lines (designated GDNFR-β) (rat); assay: affinity labeling: 125I-GDNF cross-linked to RN33B cells, SDS/PAGE, autoradiography
[7] = target: T2, 55 kD GDNF receptor subunit of rat cell lines (confirmed to be GDNFR-α) (rat); assay: as above
[8] = target: T1, 70 kD GDNF receptor subunit of rat cell lines (designated GDNFR-β) (rat); assay: affinity labeling with the cross-linker EDAC
[9] = target: T2, 55 kD GDNF receptor subunit of rat cell lines (confirmed to be GDNFR-α) (rat); assay: affinity labeling with the cross-linker EDAC
[10] = target: mouse c-RET (product of the c-ret proto-oncogene) (mouse) (UniProt P35546); assay: cross-linking of 125I-GDNF to MN-1 cells, anti-c-RET immunoprecipitation
[11] = target: T3, 70 kD GDNF receptor subunit of mouse cell lines (MN-1, TM4, SK-N-SH as printed) (mouse); assay: affinity labeling: 125I-GDNF cross-linked to MN-1 cells, SDS/PAGE, autoradiography
[12] = target: mouse c-RET (product of the c-ret proto-oncogene) (mouse) (UniProt P35546); assay: as above
[13] = target: T1, 70 kD GDNF receptor subunit of rat cell lines (designated GDNFR-β) (rat); assay: EDAC cross-linking to RN33B cells, SDS/PAGE side by side
[14] = target: T2, 55 kD GDNF receptor subunit of rat cell lines (confirmed to be GDNFR-α) (rat); assay: as above
[15] = target: T1, 70 kD GDNF receptor subunit of rat cell lines (designated GDNFR-β) (rat); assay: DSS cross-linking of 125I-GDNF to C6, RN33B and RN46A cells
[16] = target: T2, 55 kD GDNF receptor subunit of rat cell lines (confirmed to be GDNFR-α) (rat); assay: as above
[17] = target: T3, 70 kD GDNF receptor subunit of mouse cell lines (MN-1, TM4, SK-N-SH as printed) (mouse); assay: affinity labeling: 125I-GDNF cross-linked to TM4 cells, SDS/PAGE, autoradiography
[18] = target: T4, 55 kD GDNF receptor subunit of mouse Sertoli TM4 cells (mouse) (UniProt P97785); assay: as above
T4 sequence (looked up): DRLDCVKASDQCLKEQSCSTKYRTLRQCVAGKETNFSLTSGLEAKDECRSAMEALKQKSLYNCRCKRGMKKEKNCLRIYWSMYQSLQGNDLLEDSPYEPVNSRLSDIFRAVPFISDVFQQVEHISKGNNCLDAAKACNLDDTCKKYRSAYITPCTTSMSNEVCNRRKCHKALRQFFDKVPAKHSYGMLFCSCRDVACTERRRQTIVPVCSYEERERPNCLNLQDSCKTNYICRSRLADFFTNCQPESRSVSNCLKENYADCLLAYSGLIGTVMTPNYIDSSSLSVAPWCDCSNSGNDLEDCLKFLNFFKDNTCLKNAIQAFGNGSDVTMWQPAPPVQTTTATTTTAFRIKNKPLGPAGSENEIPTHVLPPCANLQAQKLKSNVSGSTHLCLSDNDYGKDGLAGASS

[19] = target: T3, 70 kD GDNF receptor subunit of mouse cell lines (MN-1, TM4, SK-N-SH as printed) (mouse); assay: DSS cross-linking of 125I-GDNF to mouse Sertoli TM4 cells
[20] = target: T4, 55 kD GDNF receptor subunit of mouse Sertoli TM4 cells (mouse); assay: as above
[21] = target: T3, 70 kD GDNF receptor subunit of mouse cell lines (MN-1, TM4, SK-N-SH as printed) (mouse); assay: displacement of 125I-GDNF by increasing cold GDNF on MN-1 cells, cross-linking, SDS-PAGE, band of the subunit cut out and counted
[22] = target: mouse c-RET (product of the c-ret proto-oncogene) (mouse) (UniProt P35546); assay: as above
[23] = target: T1, 70 kD GDNF receptor subunit of rat cell lines (designated GDNFR-β) (rat); assay: displacement of 125I-GDNF by increasing cold GDNF on RN33B cells, cross-linking, SDS-PAGE, band of the subunit cut out and counted
[24] = target: T2, 55 kD GDNF receptor subunit of rat cell lines (confirmed to be GDNFR-α) (rat); assay: as above
[25] = target: T1, 70 kD GDNF receptor subunit of rat cell lines (designated GDNFR-β) (rat); assay: affinity labeling: 125I-GDNF cross-linked to RN46A cells, SDS/PAGE, autoradiography
[26] = target: T2, 55 kD GDNF receptor subunit of rat cell lines (confirmed to be GDNFR-α) (rat); assay: as above
[27] = target: T3, 70 kD GDNF receptor subunit of mouse cell lines (MN-1, TM4, SK-N-SH as printed) (mouse); assay: affinity labeling: 125I-GDNF cross-linked to SK-N-SH cells, SDS/PAGE, autoradiography

Measured: binding

B1: recombinant rat GDNF produced in Sf21 insect cells using a baculovirus expression system (ligand, UniProt Q07731 78-211, looked up)
chain: SPDKQAAALPRRERNRQAAAASPENSRGKGRRGQRGKNRGCVLTAIHLNVTDLGLGYETKEELIFRYCSGSCEAAETMYDKILKNLSRSRRLTSDKVGQACCRPVAFDDDLSFLDDSLVYHILRKHSAKRCGCI
modifications: labeled with Na-^125I by the chloramine-T method where used as tracer
binds: all assays above
